Test results taken from publication PMC6326811.
Results are given in words; binding and its absence hold for the method and conditions named. Binding seen in cells or lysates may run through a third protein.

Target: FLAG-HA-tagged TOE1ΔDEDD, DEDD domain deletion mutant (human)
Experiment: co-IP; 293T cells transiently expressing FLAG-HA-tagged wild-type or mutant TOE1; IP with anti-FLAG agarose beads; blots with anti-FLAG and anti-DKC1 (endogenous DKC1); no RNase

- binding: no binding
B1: DKC1 (endogenous) (protein, UniProt O60832 1-514)
chain: MADAEVIILPKKHKKKKERKSLPEEDVAEIQHAEEFLIKPESKVAKLDTSQWPLLLKNFDKLNVRTTHYTPLACGSNPLKREIGDYIRTGFINLDKPSNPSSHEVVAWIRRILRVEKTGHSGTLDPKVTGCLIVCIERATRLVKSQQSAGKEYVGIVRLHNAIEGGTQLSRALETLTGALFQRPPLIAAVKRQLRVRTIYESKMIEYDPERRLGIFWVSCEAGTYIRTLCVHLGLLLGVGGQMQELRRVRSGVMSEKDHMVTMHDVLDAQWLYDNHKDESYLRRVVYPLEKLLTSHKRLVMKDSAVNAICYGAKIMLPGVLRYEDGIEVNQEIVVITTKGEAICMAIALMTTAVISTCDHGIVAKIKRVIMERDTYPRKWGLGPKASQKKLMIKQGLLDKHGKPTDSTPATWKQEYVDYSESAKKEVVAEVVKAPQVVAEAAKTAKRKRESESESDETPPAAPQLIKKEKKKSKKDKKAKAGLESGAEPGDGDSDTTKKKKKKKKAKEVELVSE
